Taken from: PubChem BioAssay AID1259306 (Sanger Institute, 2017)
Shown is an unselected part of 794 reagents tested. Over the whole deposit, 11 (1.4%) were called active. 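Calls reflect knock-down alone; synergy scores play no part, so knock-downs synergising with a drug can be called no change.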 Unmarked entries are inactive. Viability is capped at 1. The record does not give: the amount of reagent, the time to read-out.

- Aim: 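Kinases needed for viability and knock-downs that synergise with BYL719, cetuximab or trametinib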 (primary screen)
- Cells: human SNU-C5 colorectal cancer cells
- Reagent: siRNA pool against human genes
- Conditions: DMSO vehicle alone, or one anchor drug: BYL719 at 1 µM, cetuximab at 5 µg/ml or trametinib at 10 nM, given 24 h into the assay
- Detection: 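Replicate-averaged viability against non-targeting pool control, given as fraction and robust z-score; separate synergy scores for BYL719, cetuximab and trametinib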
- Direction: robust z-score, knock-down alone and viability, knock-down alone: higher = more viable cells; synergy score with BYL719: higher = stronger synthetic lethality with BYL719; synergy score with cetuximab: higher = stronger synthetic lethality with cetuximab; synergy score with trametinib: higher = stronger synthetic lethality with trametinib
- Call rule: 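Essential if knock-down without drug gives a robust z-score under -3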
- Meaning of the calls: active = essential (knock-down alone); inactive = no change alone

target | robust z-score, knock-down alone | viability, knock-down alone | synergy score with BYL719 | synergy score with cetuximab | synergy score with trametinib
MAPK11 | 0.802 | 0.974 | 0.268 | 0.0291 | 0.123
RIOK2 | -1.88 | 0.604 | 0.0415 | -0.0133 | -0.127
AXIN2 | 0.893 | 0.987 | 0.135 | 0.0373 | 0.124
MAPK15 | 0.567 | 0.942 | -0.000957 | -0.0581 | -0.25
PFKP | 0.989 | 1 | 0.148 | 0.0625 | -0.0658
PRP4K | 0.844 | 0.98 | -0.02 | 0.124 | 0.0182
IRAK2 | -0.0314 | 0.859 | -0.141 | -0.141 | 0.0235
SRPK3 | 0.989 | 1 | 0.0896 | 0.0869 | -0.15
AGK | 0.622 | 0.949 | 0.0732 | -0.0506 | -0.174
HIPK4 | 0.989 | 1 | 0.0595 | 0 | -0.149
NME4 | -0.382 | 0.811 | -0.0828 | 0.102 | -0.0332
WHR1 | 0.637 | 0.951 | -0.027 | -0.00596 | -0.143
LIMK1 | 0.989 | 1 | 0.0597 | 0.0124 | -0.122
EFNA4 | 0.0652 | 0.873 | 0.0363 | -0.0954 | -0.0478
TAF1L | -0.547 | 0.788 | -0.0299 | -0.212 | -0.167
FN3KRP | -0.973 | 0.73 | 0.0648 | -0.201 | 0.111
TSSK6 | 0.264 | 0.9 | 0.21 | -0.0333 | -0.00133
CASP8 | 0.989 | 1 | 0.0851 | 0 | -0.141
PRKDC | 0.154 | 0.885 | 0.103 | -0.103 | -0.0298
PRKCG | 0.326 | 0.909 | 0.143 | -0.0914 | -0.145
PRKY | -1.05 | 0.719 | 0.029 | 0.119 | -0.0677
GAK | -0.0947 | 0.851 | 0.0982 | 0.0762 | -0.167
PANK2 | 0.707 | 0.961 | 0.214 | 0.0259 | -0.116
ERN2 | 0.989 | 1 | 0.37 | 0.0987 | -0.101
PRKD1 | 0.931 | 0.992 | 0.0685 | 0.072 | 0.00244
MAP4K5 | -3.47 (active) | 0.386 | 0.00789 | -0.109 | -0.251
CDK10 | -1.05 | 0.718 | -0.148 | -0.169 | -0.11
PRKCE | 0.364 | 0.914 | 0.0136 | -0.0861 | -0.0926
DCLK1 | 0.628 | 0.95 | 0.0732 | -0.0429 | 0.0296
ARID1A | -0.597 | 0.781 | -0.0811 | -0.219 | -0.168
CALM2 | 0.17 | 0.887 | 0.14 | 0.163 | 0.172
CTCF | -1.73 | 0.625 | 0.0174 | 0.0587 | -0.287
ROR2 | 0.989 | 1 | 0.0837 | 0 | 0.0309
SMAD2 | -2.65 | 0.498 | 0.0104 | 0.0908 | -0.121
CDKN2B | 0.657 | 0.954 | -0.0286 | 0.0603 | -0.146
MAP3K15 | -1.64 | 0.638 | -0.1 | -0.23 | -0.0374
TSSK2 | 0.877 | 0.985 | -0.0155 | 0.109 | -0.0144
IP6K3 | -2.1 | 0.574 | 0.0839 | 0.108 | -0.0735
STK39 | -2.65 | 0.498 | 0.143 | 0.097 | 0.0401
MAP3K9 | -2.64 | 0.5 | 0.00163 | -0.0996 | -0.268
RPS6KA1 | 0.381 | 0.916 | 0.198 | 0.0102 | 0.0102
GRK7 | -0.801 | 0.753 | -0.0433 | -0.247 | -0.148
PEAK1 | -0.786 | 0.755 | -0.00687 | -0.0488 | 0.0246
PIP5KL1 | 0.989 | 1 | 0.0979 | 0.101 | -0.235
PRKAG2 | 0.989 | 1 | 0.159 | 0 | 0.0633
GCK | -0.943 | 0.734 | 0.0123 | -0.0548 | -0.11
ROR1 | 0.761 | 0.969 | 0.106 | -0.0314 | 0.0407
NTRK1 | -0.855 | 0.746 | -0.0804 | 0.0509 | 0.067
PRKAB1 | -1.71 | 0.629 | 0.161 | -0.0572 | -0.245
MAP4K1 | -0.521 | 0.792 | 0.121 | -0.0798 | 0.000409
